The list shows a part of the results.

By UniProt entry, the sequences of proteins in these tests, tags left out.
UniProt Q0JBA9, entry or part of it: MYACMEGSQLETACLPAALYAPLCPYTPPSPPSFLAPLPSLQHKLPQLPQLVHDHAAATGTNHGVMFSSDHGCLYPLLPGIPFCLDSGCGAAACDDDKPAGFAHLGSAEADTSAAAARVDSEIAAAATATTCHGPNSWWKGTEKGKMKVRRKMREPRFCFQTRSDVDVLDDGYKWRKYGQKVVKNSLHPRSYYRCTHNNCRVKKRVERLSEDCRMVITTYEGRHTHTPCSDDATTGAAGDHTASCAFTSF

The test concerns the target OsWRKY34 (Oryza sativa, UniProt Q0JBA9 1-250). Nature of the test: protein-binding microarray (RPBM); PBS, 2% BSA, 51.3 ng/ul salmon testes DNA, 50 uM zinc acetate, 200 nM TF, 25 C, 1 h; high values mean tight binding. The following applies: protein: recombinant; tags: N-terminal polyhistidine and DsRed monomer fusion (pET32a); label: CyDye5-dUTP incorporated in the synthesized complementary strand; 3' TTTTT single-stranded linker to array surface; dsDNA, one strand shown. The essentials: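 Transcription factors were made in E. coli BL21-CodonPlus as N-terminal fusions to a polyhistidine tag and DsRed, then purified on Ni–NTA. After primer extension with Cy5-dUTP and blocking with 2% BSA, a custom Agilent array was exposed for 1 h at 25 °C to 200 nM protein in PBS, 2% BSA, salmon testes DNA and 50 µM zinc acetate. Washed arrays were scanned on an Axon 4000B, and the binding signal is per-feature fluorescence intensity in arbitrary units.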
“TGTGCTGCTCGGCGGCGCCTTCGTGACGGCCGCGCGGCCGCGGAGTCACCTAGTGCAG”: the binding signal was 8320 fluorescence intensity (a.u.).
The value for “ACAAGATTTCCTTTTTTACGCTCAATCTCCTTCTCCCAAACGGAGTCACCTAGTGCAG” was 8260 fluorescence intensity (a.u.).
As for “TTGTGTGTTCTTCCATCTGGCAATGGCATCTGCAGCAGCACGGAGTCACCTAGTGCAG”, the binding signal was 9530 fluorescence intensity (a.u.).
“GTCTTCTGTTGCTTCTAGTGGCGCCCGCTGTGTCCGTCATCGGAGTCACCTAGTGCAG”: the binding signal is 9610 fluorescence intensity (a.u.).
The value for “ACCAATCACCACCGCCCAACGCGCACACGCCCACGCGCTCCGGAGTCACCTAGTGCAG” was 10500 fluorescence intensity (a.u.); that for “CCTAATTTTTTCCTCAGGAAAGTTACTGACATTGATTCTTCGGAGTCACCTAGTGCAG” was 8650 fluorescence intensity (a.u.).
The value for “ACATCAAAATTTTTTTACACACATAAAGTTCCAACTTTTTCGGAGTCACCTAGTGCAG” was 8260 fluorescence intensity (a.u.); that for “CTGGGTCATCGTCCCATGCGACGTTGACATAGTATTAGAACGGAGTCACCTAGTGCAG” was 10400 fluorescence intensity (a.u.); that for “GACGTTTTTGGGGTGGGCCGGCCCGTCCTCCGTTGGGTCGCGGAGTCACCTAGTGCAG” was 9310 fluorescence intensity (a.u.).
As to “CATTTTTGCAAAGTTTGGTTGGGGTGGAAGATGTCCGGCCCGGAGTCACCTAGTGCAG”, the binding signal was 9670 fluorescence intensity (a.u.).
As for “TGCATTATATTTCAAGATTCCTATGTGTTCAATTCATATACGGAGTCACCTAGTGCAG”, the binding signal was 9250 fluorescence intensity (a.u.).
Then “TACAACAACCCATTTTCCAAGTAGTACAAGTCTCCATGTCCGGAGTCACCTAGTGCAG”, with 8040 fluorescence intensity (a.u.); and “TCTCATATCCCGATCATGGTCTCTAGCAATTAAATTCCGTCGGAGTCACCTAGTGCAG”, with 8900 fluorescence intensity (a.u.); and “TTCTCCCACCGCATCCTCTCTCCCCTTGAGTATTTACTTTCGGAGTCACCTAGTGCAG”, with 8370 fluorescence intensity (a.u.).
Consider “GGGGATTAAAACAATGTGGGTCGTTAGATCTTTTCAGTCTCGGAGTCACCTAGTGCAG”, for which the binding signal is 8120 fluorescence intensity (a.u.).
Then “ATTTTCTTCCCAACCAATCACAACTCTCCACCATTCACTTCGGAGTCACCTAGTGCAG”, with 8250 fluorescence intensity (a.u.); and “CGTGAATCCTCGCATTATAGTTTATGGTCACTGTTATATACGGAGTCACCTAGTGCAG”, with 9300 fluorescence intensity (a.u.); and “CTCGATCCAGCGCTGTCACAGTGTCACGCCAAGCAAAACACGGAGTCACCTAGTGCAG”, with 8790 fluorescence intensity (a.u.).
Then “TCGTACTAGTACTACCGTCTACAGCGTCCCGCTGATGCTCCGGAGTCACCTAGTGCAG”, with 8990 fluorescence intensity (a.u.); and “GTTCTCTCGCCGTACACCGTCGTCGCCGACCGGCTCCCTCCGGAGTCACCTAGTGCAG”, with 10100 fluorescence intensity (a.u.); and “CTCGTCTCACCCTGAAGCCGTATTCTGTTTCTTTCTTTTCCGGAGTCACCTAGTGCAG”, with 9060 fluorescence intensity (a.u.).
Take “CTATTCTCTCTCATTTTATCCATATATTTTATTATTTTTTCGGAGTCACCTAGTGCAG”: the binding signal is 8900 fluorescence intensity (a.u.).
The value for “TTCACAAATTGGCCATCTTATTCTTTTCGTAGCGTGCAAACGGAGTCACCTAGTGCAG” was 9010 fluorescence intensity (a.u.).
The value for “CCTCCTCTCTATCTCTCTCTCTCTCTCTCTTGGTTTTCCGCGGAGTCACCTAGTGCAG” was 10500 fluorescence intensity (a.u.).
Then “CCGCCGCCGCCGCCGCCGCCGCAGCCGAGCGACCGTCCGACGGAGTCACCTAGTGCAG”, with 8120 fluorescence intensity (a.u.); and “CCACTAATTTTCGTCATTTTTTATAATATTTTCACAAATTCGGAGTCACCTAGTGCAG”, with 10000 fluorescence intensity (a.u.).
Take “CTCTTATAGTCTCTATCTCCTGTATACGCTTATATATAGACGGAGTCACCTAGTGCAG”: the binding signal is 8510 fluorescence intensity (a.u.).
On to “ATAAAGTGGGGTTGGTTTGGCTGCTTTCTCGATTAGACCGCGGAGTCACCTAGTGCAG”, for which the binding signal is 9620 fluorescence intensity (a.u.).
Then “GGGTTGGGTCTTCTTTGAACTAATTCATGTGGAAATCCTACGGAGTCACCTAGTGCAG”, with 15700 fluorescence intensity (a.u.); and “TCTGATAATATCTTGTGGTTTCTTTCTTCTTCCCTGGATCCGGAGTCACCTAGTGCAG”, with 8320 fluorescence intensity (a.u.); and “TTTGGGTTGTGCTTAGGTTTCCTTCTCGGGCTTTGTTGTACGGAGTCACCTAGTGCAG”, with 18700 fluorescence intensity (a.u.).
Take “GTTATTATTTTTCCTATCTGCATTTAAGCAATTCTATTATCGGAGTCACCTAGTGCAG”: the binding signal is 9510 fluorescence intensity (a.u.).
Then “CCTCTGCTTCGTTTCCTTCTCCAGCAAGCACCCGACCACACGGAGTCACCTAGTGCAG”, with 9190 fluorescence intensity (a.u.); and “GCTATAGATCGATCTTCTAGTTGACCACTTCAGAAACATCCGGAGTCACCTAGTGCAG”, with 8640 fluorescence intensity (a.u.); and “TGCATTTTTTTTCTCTAAGTATTACTATACACCGGTCATCCGGAGTCACCTAGTGCAG”, with 8080 fluorescence intensity (a.u.).
Then “ATGAACTTCTTCTGAAATTTTGCTGGTATTTCCTTTTGAACGGAGTCACCTAGTGCAG”, with 8670 fluorescence intensity (a.u.).
“ATCGGGTTGGTCAGTTGTTTGCCATGGTGATTACGAAATTCGGAGTCACCTAGTGCAG”: the binding signal was 14200 fluorescence intensity (a.u.).
“TTTGGCCCGCACACACCAACCTGTCCTGTCCTGCCGTCCTCGGAGTCACCTAGTGCAG”: the binding signal was 9500 fluorescence intensity (a.u.).
The value for “TTTGCTTAGTGGTGTGTTTGCTGGGCTATAAAAGTCATATCGGAGTCACCTAGTGCAG” was 10600 fluorescence intensity (a.u.); that for “CATCAACTTCTTCCCAATCAGCCGCTTCTACTACTACTAACGGAGTCACCTAGTGCAG” was 8300 fluorescence intensity (a.u.); that for “AGGCGTGTATGTAGTTGAACTGTTTTGCTTTTGCCTGCCTCGGAGTCACCTAGTGCAG” was 11800 fluorescence intensity (a.u.).
Take “TTCCACCTCGCGCGCGACCCACTAGCTACCAGCCTTCTACCGGAGTCACCTAGTGCAG”: the binding signal was 13600 fluorescence intensity (a.u.).

For the origin of these results see PMC7819943, “Rice protein-binding microarrays: a tool to detect cis-acting elements near promoter regions in rice”.
